≈ marks a conversion by molar mass, not a printed value.
What was measured:
[1] = test system: Staphylococcus aureus ATCC 29213; experiment: Antibacterial MIC, CLSI M07-A10 dilution susceptibility test; type: cell-based; settings: ATCC29213
[2] = test system: Staphylococcus aureus ATCC BAA-1556 (MERSA resistant); experiment: as above; type: cell-based; settings: ATCCBAA1556

**Q.** For `CN[C@H](CC(C)C)C(=O)N[C@H]1C(=O)N[C@@H](CC(N)=O)C(=O)N[C@H]2C(=O)N[C@H]3C(=O)N[C@H](C(=O)N[C@H](C(=O)O)c4cc(O)cc(O)c4-c4cc3ccc4O)[C@H](O)c3ccc(c(Cl)c3)Oc3cc2cc(c3O[C@@H]2O[C@H](CO)[C@@H](O)[C@H](O)[C@H]2O[C@H]2C[C@](C)(N)[C@H](O)[C@H](C)O2)Oc2ccc(cc2Cl)[C@H]1O` [Vancomycin, reference compound], which MIC [1] is on record?
**A.** 1 µg/mL (≈ 0.69 µM)

**Q.** What about the MIC [2] of the same molecule?
**A.** 1 µg/mL (≈ 0.69 µM)
